What was measured:
[1] = Behavior of compound in methanol under light irradiation with wavelength of 313 nm or 365 nm (absorbance; Test Examples 1, 2, 8, 9); format: physicochemical; conditions: methanol solution, 313 nm and 365 nm
Method: (§1) The compound (1)-1 obtained above was dissolved in methanol so as to have a concentration of 2.0×10^−5 mol/L. Then, using a mercury xenon lamp, the illuminance was set to 5 mW/cm^2, the exposure doses were set to 0, 10, 30, 60 and 100 mJ/cm^2, and the obtained methanol solution was irradiated with light having a wavelength of 313 nm. Then, the absorbance of the compound (1)-1 was measured.
as §1, with “using an LED” for “using a mercury xenon”, “to 10” for “to 5”, “of 365” for “of 313”
as §1, with “compound (1)-2” for “compound (1)-1”, “to 10” for “to 5”, “0,” for “0, 10,”, “30, 100, 200” for “30, 60”, “and 300” for “and 100”, “measured. […]” for “measured.”

[2] = UV curing of liquid epoxy compound (Test Example 5); conditions: 365 nm, post-bake 80, 100 or 120° C. for 60 minutes, no curing accelerator
[3] = Negative patterning using photoreactive composition (Test Example 10); conditions: 2 mol % with respect to PGMA, 365 nm, 1000 mJ/cm^2, post-bake 80° C. 270 seconds

Compound	generation of a base by light irradiation (absorbance spectra) [1]	curing of the liquid epoxy compound by UV irradiation [2]	normalized film thickness (after development / before light irradiation) [3]	thickness of the coating film after development ([3]; cyclohexanone 30 seconds) [μm]
O=C(/C=C/c1ccccc1O)Nc1ccncc1 [compound (1)-1]	a base was generated	it was possible to cure the liquid epoxy compound		
CN(C(=O)/C=C/c1ccccc1O)c1ccncc1 [compound (1)-2]	a base was generated		0.96	1.6

Source: patent US12399427B2, “Photobase generator, compound, photoreactive composition and reaction product” (Tokyo University of Science Foundation, priority 2019, dated 2025)
